# Measured values published in publication PMC5466602.
# Results are given in words; binding and its absence hold for the method and conditions named. Binding seen in cells or lysates may run through a third protein. Here binding means that the protein was enriched with, or labelled near, the bait; the list need not be complete. Where a sequence is shown, tags or fusion partners need not be part of it.
# B1: Utp18p (protein, UniProt P40362 1-594)
# chain: MTMATTAMNVSVPPPDEEEQLLAKFVFGDTTDLQENLAKFNADFIFNEQEMDVEDQEDEGSESDNSEEDEAQNGELDHVNNDQLFFVDDGGNEDSQDKNEDTMDVDDEDDSSSDDYSEDSEEAAWIDSDDEKIKVPILVTNKTKKLRTSYNESKINGVHYINRLRSQFEKIYPRPKWVDDESDSELDDEEDDEEEGSNNVINGDINALTKILSTTYNYKDTLSNSKLLPPKKLDIVRLKDANASHPSHSAIQSLSFHPSKPLLLTGGYDKTLRIYHIDGKTNHLVTSLHLVGSPIQTCTFYTSLSNQNQQNIFTAGRRRYMHSWDLSLENLTHSQTAKIEKFSRLYGHESTQRSFENFKVAHLQNSQTNSVHGIVLLQGNNGWINILHSTSGLWLMGCKIEGVITDFCIDYQPISRGKFRTILIAVNAYGEVWEFDLNKNGHVIRRWKDQGGVGITKIQVGGGTTTTCPALQISKIKQNRWLAVGSESGFVNLYDRNNAMTSSTPTPVAALDQLTTTISNLQFSPDGQILCMASRAVKDALRLVHLPSCSVFSNWPTSGTPLGKVTSVAFSPSGGLLAVGNEQGKVRLWKLNHY
# B2: Utp6p (protein, UniProt Q02354 1-440)
# chain: MSKTRYYLEQCIPEMDDLVEKGLFTKNEVSLIMKKRTDFEHRLNSRGSSINDYIKYINYESNVNKLRAKRCKRILQVKKTNSLSDWSIQQRIGFIYQRGTNKFPQDLKFWAMYLNYMKARGNQTSYKKIHNIYNQLLKLHPTNVDIWISCAKYEYEVHANFKSCRNIFQNGLRFNPDVPKLWYEYVKFELNFITKLINRRKVMGLINEREQELDMQNEQKNNQAPDEEKSHLQVPSTGDSMKDKLNELPEADISVLGNAETNPALRGDIALTIFDVCMKTLGKHYINKHKGYYAISDSKMNIELNKETLNYLFSESLRYIKLFDEFLDLERDYLINHVLQFWKNDMYDLSLRKDLPELYLKTVMIDITLNIRYMPVEKLDIDQLQLSVKKYFAYISKLDSASVKSLKNEYRSYLQDNYLKKMNAEDDPRYKILDLIISKL
# B3: Nop6p (protein, UniProt Q07623 1-225)
# chain: MGSEEDKKLTKKQLKAQQFRKSKEEKDQEKDVKKEQAPEGKRPNSAAGNDGEEPVKKKRKTRRGRGGKGKNGKKGNRFIVFVGSLPRDITAVELQNHFKNSSPDQIRLRADKGIAFLEFDADKDRTGIQRRMDIALLQHGTLLKEKKINVELTVGGGGNSQERLEKLKNKNIKLDEERKERLTKMINDGNQKKIAKTTATAAQTSGTDNKPVPAGIHPDRAKLLK
# B4: Mrd1p (protein, UniProt Q06106 1-887)
# chain: MSRIIVKGLPVYLTDDNLREHFTKRLRQKHSHQAVNGSGPDLITDVKILRDRNGESRRFGFIGYRNEEDAFDAVEYFNGSFINTSKIEVSMAKSFADPRVPQPMKEKRREALKRFREKEEKLLQEENRKKKKVDENKHSNIDDEIRKNKQLQEFMETMKPSSQVTSWEKVGIDKSIEDEKLKREEEDSSVQGNSLLAHALALKEENNKDEAPNLVIENESDDEYSALNRNRDEDQEDAGEEEKMISISNLKDTDIGLVNDDANSDEKENEKRRNLAQDEKVSDLDWFKQRRVRIKESEAETREKSSSYATEQNESLDTKKEEQPERAVPQKTDEELAIEKINQTGRLFLRNILYTSKEEDFRKLFSPFGELEEVHVALDTRTGQSKGFAYVLFKDSKNAVNAYVELDKQIFQGRLLHILPGEEKKSHRLDEFDLKNMPLKKQKELKRKAAASRQTFSWNSLYMNQDAVLGSVAAKLGLEKSQLIDAENSSSAVKQALAEAHVIGDVRKYFESKGVDLTKFSQLKSTNQRDDKVILVKNFPFGTTREELGEMFLPYGKLERLLMPPAGTIAIVQFRDTTSARAAFTKLSYKRFKDGIIYLERGPKDCFTKPAEADDLINNTSAKEEENPVEVKPSSNDLMEANKDVTEGSSNAHDEDVIDGPTVSIFIKNLNFSTTNQNLTDRFKVFTGFVVAQVKTKPDPKHQGKTLSMGFGFVEFRTKEQANAVIAAMDGTVIDGHKIQLKLSHRQASQSGNTKTKSNKKSGKIIVKNLPFEATRKDVFELFNSFGQLKSVRVPKKFDKSARGFAFVEFLLPKEAENAMDQLHGVHLLGRRLVMQYAEEDAVDAEEEIARMTKKVRKQVATNEMAALRNGGGRKKLDVDDEENEGF
# B5: Pwp2p-ΔC103 (aa 1–820) (domain or fragment, UniProt P25635 1-820)
# chain: MKSDFKFSNLLGTVYRQGNITFSDDGKQLLSPVGNRVSVFDLINNKSFTFEYEHRKNIAAIDLNKQGTLLISIDEDGRAILVNFKARNVLHHFNFKEKCSAVKFSPDGRLFALASGRFLQIWKTPDVNKDRQFAPFVRHRVHAGHFQDITSLTWSQDSRFILTTSKDLSAKIWSVDSEEKNLAATTFNGHRDYVMGAFFSHDQEKIYTVSKDGAVFVWEFTKRPSDDDDNESEDDDKQEEVDISKYSWRITKKHFFYANQAKVKCVTFHPATRLLAVGFTSGEFRLYDLPDFTLIQQLSMGQNPVNTVSVNQTGEWLAFGSSKLGQLLVYEWQSESYILKQQGHFDSTNSLAYSPDGSRVVTASEDGKIKVWDITSGFCLATFEEHTSSVTAVQFAKRGQVMFSSSLDGTVRAWDLIRYRNFRTFTGTERIQFNCLAVDPSGEVVCAGSLDNFDIHVWSVQTGQLLDALSGHEGPVSCLSFSQENSVLASASWDKTIRIWSIFGRSQQVEPIEVYSDVLALSMRPDGKEVAVSTLKGQISIFNIEDAKQVGNIDCRKDIISGRFNQDRFTAKNSERSKFFTTIHYSFDGMAIVAGGNNNSICLYDVPNEVLLKRFIVSRNMALNGTLEFLNSKKMTEAGSLDLIDDAGENSDLEDRIDNSLPGSQRGGDLSTRKMRPEVRVTSVQFSPTANAFAAASTEGLLIYSTNDTILFDPFDLDVDVTPHSTVEALREKQFLNALVMAFRLNEEYLINKVYEAIPIKEIPLVASNIPAIYLPRILKFIGDFAIESQHIEFNLIWIKALLSASGGYINEHKYLFSTA
# B6: Pwp2p-ΔC206 (aa 1–717) (domain or fragment, UniProt P25635 1-717)
# chain: MKSDFKFSNLLGTVYRQGNITFSDDGKQLLSPVGNRVSVFDLINNKSFTFEYEHRKNIAAIDLNKQGTLLISIDEDGRAILVNFKARNVLHHFNFKEKCSAVKFSPDGRLFALASGRFLQIWKTPDVNKDRQFAPFVRHRVHAGHFQDITSLTWSQDSRFILTTSKDLSAKIWSVDSEEKNLAATTFNGHRDYVMGAFFSHDQEKIYTVSKDGAVFVWEFTKRPSDDDDNESEDDDKQEEVDISKYSWRITKKHFFYANQAKVKCVTFHPATRLLAVGFTSGEFRLYDLPDFTLIQQLSMGQNPVNTVSVNQTGEWLAFGSSKLGQLLVYEWQSESYILKQQGHFDSTNSLAYSPDGSRVVTASEDGKIKVWDITSGFCLATFEEHTSSVTAVQFAKRGQVMFSSSLDGTVRAWDLIRYRNFRTFTGTERIQFNCLAVDPSGEVVCAGSLDNFDIHVWSVQTGQLLDALSGHEGPVSCLSFSQENSVLASASWDKTIRIWSIFGRSQQVEPIEVYSDVLALSMRPDGKEVAVSTLKGQISIFNIEDAKQVGNIDCRKDIISGRFNQDRFTAKNSERSKFFTTIHYSFDGMAIVAGGNNNSICLYDVPNEVLLKRFIVSRNMALNGTLEFLNSKKMTEAGSLDLIDDAGENSDLEDRIDNSLPGSQRGGDLSTRKMRPEVRVTSVQFSPTANAFAAASTEGLLIYSTNDTILFDPFDL
# B7: Pwp2p (wild type, plasmid-encoded, untagged) (protein, UniProt P25635 1-923)
# chain: MKSDFKFSNLLGTVYRQGNITFSDDGKQLLSPVGNRVSVFDLINNKSFTFEYEHRKNIAAIDLNKQGTLLISIDEDGRAILVNFKARNVLHHFNFKEKCSAVKFSPDGRLFALASGRFLQIWKTPDVNKDRQFAPFVRHRVHAGHFQDITSLTWSQDSRFILTTSKDLSAKIWSVDSEEKNLAATTFNGHRDYVMGAFFSHDQEKIYTVSKDGAVFVWEFTKRPSDDDDNESEDDDKQEEVDISKYSWRITKKHFFYANQAKVKCVTFHPATRLLAVGFTSGEFRLYDLPDFTLIQQLSMGQNPVNTVSVNQTGEWLAFGSSKLGQLLVYEWQSESYILKQQGHFDSTNSLAYSPDGSRVVTASEDGKIKVWDITSGFCLATFEEHTSSVTAVQFAKRGQVMFSSSLDGTVRAWDLIRYRNFRTFTGTERIQFNCLAVDPSGEVVCAGSLDNFDIHVWSVQTGQLLDALSGHEGPVSCLSFSQENSVLASASWDKTIRIWSIFGRSQQVEPIEVYSDVLALSMRPDGKEVAVSTLKGQISIFNIEDAKQVGNIDCRKDIISGRFNQDRFTAKNSERSKFFTTIHYSFDGMAIVAGGNNNSICLYDVPNEVLLKRFIVSRNMALNGTLEFLNSKKMTEAGSLDLIDDAGENSDLEDRIDNSLPGSQRGGDLSTRKMRPEVRVTSVQFSPTANAFAAASTEGLLIYSTNDTILFDPFDLDVDVTPHSTVEALREKQFLNALVMAFRLNEEYLINKVYEAIPIKEIPLVASNIPAIYLPRILKFIGDFAIESQHIEFNLIWIKALLSASGGYINEHKYLFSTAMRSIQRFIVRVAKEVVNTTTDNKYTYRFLVSTDGSMEDGAADDDEVLLKDDADEDNEENEENDVVMESDDEEGWIGFNGKDNKLPLSNENDSSDEEENEKELP
# Molecular target: T1, Utp21p-TAP (S. cerevisiae) (UniProt Q06078)
# T1 sequence: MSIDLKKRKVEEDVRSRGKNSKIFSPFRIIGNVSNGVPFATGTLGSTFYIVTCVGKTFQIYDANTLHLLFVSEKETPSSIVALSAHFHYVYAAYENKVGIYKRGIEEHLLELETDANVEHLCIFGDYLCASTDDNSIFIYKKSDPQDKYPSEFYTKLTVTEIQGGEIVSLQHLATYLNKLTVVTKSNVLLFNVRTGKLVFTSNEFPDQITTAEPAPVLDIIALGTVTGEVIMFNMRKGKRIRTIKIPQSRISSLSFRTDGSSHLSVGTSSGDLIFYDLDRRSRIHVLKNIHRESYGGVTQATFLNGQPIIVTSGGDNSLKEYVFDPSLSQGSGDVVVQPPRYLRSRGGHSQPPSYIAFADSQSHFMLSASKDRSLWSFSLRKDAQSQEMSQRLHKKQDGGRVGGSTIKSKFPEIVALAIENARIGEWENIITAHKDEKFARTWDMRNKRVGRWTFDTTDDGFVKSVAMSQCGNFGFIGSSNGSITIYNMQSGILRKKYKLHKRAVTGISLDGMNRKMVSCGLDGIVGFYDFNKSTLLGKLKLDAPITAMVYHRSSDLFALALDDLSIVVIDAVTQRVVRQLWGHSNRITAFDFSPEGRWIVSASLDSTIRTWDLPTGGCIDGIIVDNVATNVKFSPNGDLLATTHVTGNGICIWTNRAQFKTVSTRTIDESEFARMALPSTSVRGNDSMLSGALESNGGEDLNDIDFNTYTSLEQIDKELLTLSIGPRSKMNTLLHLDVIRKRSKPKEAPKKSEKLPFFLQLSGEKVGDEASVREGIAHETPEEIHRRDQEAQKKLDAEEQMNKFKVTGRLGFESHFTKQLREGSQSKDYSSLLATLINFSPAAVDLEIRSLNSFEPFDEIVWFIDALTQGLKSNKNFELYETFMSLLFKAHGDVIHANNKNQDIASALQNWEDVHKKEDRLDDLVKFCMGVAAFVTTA
# Experiment: affinity purification with mass spectrometry; Utp21p-TAP purified on IgG-coupled magnetic beads from yeast lysate, buffer PM; semi-quantitative iTRAQ mass spectrometry normalised to Utp21p-TAP; genomic GAL::HA-PWP2 shut off in glucose (8 h, 18 h or 14 h) with a plasmid-borne PWP2 allele or empty plasmid
row,Binder,binding
1,B1,binds
2,B2,binds
3,B3,binds
4,B4,binds
5,B5,binds
6,B6,binds
7,B7,binds
